Source: patent US20070213354A1, “Compositions and Methods for the Treatment of Multiple Sclerosis” (AmpliMed Corporation, priority 2006, published 2007)
Some results come without the dose or concentration used.

Tested on: neonatal rat myocytes
Assay: Cardiotoxicity, neonatal rat myocyte assay (ATP/protein ratio)
Format: cell-based
Conditions: ratio of the IC50 values for Cardiotox and L1210 sensitive assays

Q: With O=C1c2c(O)ccc(O)c2C(=O)c2c(NCCNCCO)ccc(NCCNCCO)c21 [Mitoxantrone, reference compound] as the compound, how does the “Cardiotox:L1210sens” value read?
A: 773.70
